Some of the results follow. These are further read-outs of the screen, such as a control signal, another cell line or another target. No call is given for them. The list favours compounds with an active or inconclusive main result. Words in brackets tell the shape of the fitted curve; partial curves, single points and poor fits give uncertain potencies.
Test: qHTS for identification of novel therapeutic agents for treatment of microphthalmiaassociated transcription factor (MiT) renal cell carcinoma (RCC) (AID 1963991)
Conditions: CellTiter-Glo, 48 h; for z-score: stronger effect = lower value
How it was run: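 UOK109/UOK124/UOK145 (TFE3 fusions, three partners); 500 cells/well; MIPE v4.0, 1912 cpds, 11 conc.; 48 h, 37 C; CellTiter-Glo, 15 min RT; lum. Norm.: DMSO 100%, empty 0%.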

[1] = TFE3-RCC UOK109 viability, measured here: UOK109 Z-AUC
[2] = TFE3-RCC viability, measured here: UOK124 Z-AUC
[3] = TFE3-RCC viability, measured here: UOK124 cell viability
[4] = TFE3-RCC viability, measured here: UOK145 Z-AUC
[5] = TFE3-RCC viability, measured here: UOK145 cell viability

| SMILES | z-score [1] | z-score [2] | AC50 [3] | z-score [4] | AC50 [5] |
| --- | --- | --- | --- | --- | --- |
| CCCCn1c(=O)n(Cc2ccccc2F)c(=O)c2[nH]c(Cc3ccc(NC(C)=O)cc3)nc21 | -0.0358 | -0.125 | 2.96 µM [falling, partial curve, poor fit] | -0.264 | – |
| CCOC(=O)C=C[C@H](C[C@@H]1CCNC1=O)NC(=O)[C@@H](CC(=O)[C@@H](NC(=O)c1cc(C)on1)C(C)C)Cc1ccc(F)cc1 | 0.581 | 0.674 | – | -0.534 | 0.935 µM [rising, full curve, poor fit] |
| NC1=N[C@H]2[C@H](CS[C@H]2CCCCC(=O)O)N1 | 1.16 | 1.15 | – | -1.62 | 0.0363 µM [falling, partial curve, poor fit] |
| CNC(=O)c1ccc(-c2cnc3ncc(Cc4ccc5ncccc5c4)n3n2)cc1F | -0.384 | 0.636 | – | -0.205 | 33.2 µM [falling, single point] |
| CON=C(C(=O)N[C@@H]1C(=O)N2C(C(=O)O)=C(CSC(=O)c3ccco3)CS[C@H]12)c1csc(N)n1 | 1.28 | 0.808 | – | 1.52 | 37.2 µM [falling, single point] |
| COc1cc(NS(=O)(=O)c2ccc(N)cc2)nc(OC)n1 | 1.11 | 0.661 | – | -1 | 0.209 µM [rising, full curve] |
| CCCCCN(CCC12CC3CC(CC(C3)C1)C2)C(=O)NCCCc1ccncc1 | 0.574 | -0.116 | 18.7 µM [falling, partial curve] | 0.376 | – |
| CN1CC(=O)N2C(Cc3c([nH]c4ccccc34)[C@H]2c2ccc3c(c2)OCO3)C1=O (some centres undefined) | 0.939 | 0.151 | 29.6 µM [falling, single point] | 0.393 | – |
| O=C1NC(=O)C(=Cc2ccc(-c3ccc(F)cc3)o2)S1 | 0.666 | 1.32 | – | 0.0287 | 16.6 µM [falling, partial curve, poor fit] |
| O=C(NC(Cc1cc(=O)[nH]c2ccccc12)C(=O)O)c1ccc(Cl)cc1 (centres undefined) | -0.306 | 0.53 | – | -1.17 | 33.2 µM [falling, single point] |
| CC[C@H]1OC(=O)[C@H](C)C(=O)[C@H](C)[C@@H](O[C@H]2O[C@H](C)C[C@H](N(C)C)[C@@H]2O)[C@](C)(OC)C[C@@H](C)C(=O)[C@H](C)[C@H]2N(CCCCn3cnc(-c4cccnc4)c3)C(=O)O[C@]12C | 1.7 | -0.132 | 0.0148 µM [rising, full curve, poor fit] | 0.886 | – |
| COC(=O)C1=CO[C@@H](O)[C@@H]2C(CO)=CC[C@@H]12 | 1.36 | 0.111 | – | 0.619 | 20.9 µM [falling, partial curve, poor fit] |
| CC(C)NCC(O)COc1ccc(CCOCC2CC2)cc1 (centres undefined) | 0.444 | 0.0952 | – | 1.01 | 0.0296 µM [rising, full curve, poor fit] |
| Cn1c(N2CCCCS2(=O)=O)nc(C(=O)NCc2ccc(F)cc2)c(O)c1=O | 0.401 | -0.0032 | 2.64 µM [falling, full curve, poor fit] | 1.04 | – |
| Cc1nnc(C(C)C)n1C1C[C@H]2CC[C@@H](C1)N2CC[C@H](NC(=O)C1CCC(F)(F)CC1)c1ccccc1 (some centres undefined) | 0.419 | 0.281 | – | 0.366 | 29.6 µM [falling, single point] |
| CN1[C@H]2CC[C@H]1CC(OC(=O)c1c[nH]c3ccccc13)C2 (some centres undefined) | 0.65 | 0.835 | – | 0.431 | 14.8 µM [falling, partial curve, poor fit] |
| CC(C)(OCc1nn(Cc2ccccc2)c2ccccc12)C(=O)O | 0.915 | 0.538 | – | 0.506 | 26.4 µM [falling, single point] |
| CCOc1ccccc1N=Nc1c(C)[nH]n(-c2nc(-c3ccccc3)cs2)c1=O | -0.114 | -0.0066 | – | 1.07 | 7.43 µM [falling, partial curve, poor fit] |
| COc1cc(C(C)C)c(Oc2cnc(NC(CO)CO)nc2N)cc1I | -0.461 | -1.58 | – | -0.242 | 2.35 µM [falling, full curve, poor fit] |
| Cc1c[nH]c(C=C2C(=O)Nc3ccccc32)c1CCC(=O)O | 0.789 | -0.412 | 20.9 µM [falling, single point] | 0.52 | – |

Exported bar-delimited: 2 of the compounds above.
SMILES | z-score [1] | z-score [2] | AC50 [3] | z-score [4] | AC50 [5]
NC1=N[C@H]2[C@H](CS[C@H]2CCCCC(=O)O)N1 | 1.16 | 1.15 | – | -1.62 | 0.0363 µM [falling, partial curve, poor fit]
CNC(=O)c1ccc(-c2cnc3ncc(Cc4ccc5ncccc5c4)n3n2)cc1F | -0.384 | 0.636 | – | -0.205 | 33.2 µM [falling, single point]
